Data on three molecules can be found in publication PMC5854132.

These are yes or no findings as the source states them, for the method shown. For part of these data: In cells and extracts the contact can be indirect. Some results given as binding are weak or reduced against the parent protein; the word gives no strength. For part of these data: Tags and fused reporters may be left off the sequences shown.

The target of experiment [1] is T1, YC-FVE (Arabidopsis thaliana) (UniProt O22607).
T1 sequence: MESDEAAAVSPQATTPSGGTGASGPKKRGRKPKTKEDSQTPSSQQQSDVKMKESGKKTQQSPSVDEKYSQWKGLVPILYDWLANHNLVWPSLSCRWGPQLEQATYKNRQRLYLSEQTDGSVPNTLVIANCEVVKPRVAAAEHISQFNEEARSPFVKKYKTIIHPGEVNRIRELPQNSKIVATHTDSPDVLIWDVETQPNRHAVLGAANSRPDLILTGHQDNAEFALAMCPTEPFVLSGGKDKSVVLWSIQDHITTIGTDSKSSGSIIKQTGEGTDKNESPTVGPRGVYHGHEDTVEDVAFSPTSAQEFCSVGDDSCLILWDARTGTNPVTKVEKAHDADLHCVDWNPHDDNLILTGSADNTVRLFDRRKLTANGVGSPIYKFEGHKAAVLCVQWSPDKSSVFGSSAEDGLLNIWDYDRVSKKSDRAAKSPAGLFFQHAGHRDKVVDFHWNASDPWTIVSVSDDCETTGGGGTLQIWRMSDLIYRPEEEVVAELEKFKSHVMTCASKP
Put plainly: split reporter; BiFC with YN and YC halves of YFP in Arabidopsis protoplasts; confocal microscopy within 18 hours after transformation.

Experiment [2] concerns the target T2, FVE-GFP (Arabidopsis thaliana) (UniProt O22607).
T2 sequence: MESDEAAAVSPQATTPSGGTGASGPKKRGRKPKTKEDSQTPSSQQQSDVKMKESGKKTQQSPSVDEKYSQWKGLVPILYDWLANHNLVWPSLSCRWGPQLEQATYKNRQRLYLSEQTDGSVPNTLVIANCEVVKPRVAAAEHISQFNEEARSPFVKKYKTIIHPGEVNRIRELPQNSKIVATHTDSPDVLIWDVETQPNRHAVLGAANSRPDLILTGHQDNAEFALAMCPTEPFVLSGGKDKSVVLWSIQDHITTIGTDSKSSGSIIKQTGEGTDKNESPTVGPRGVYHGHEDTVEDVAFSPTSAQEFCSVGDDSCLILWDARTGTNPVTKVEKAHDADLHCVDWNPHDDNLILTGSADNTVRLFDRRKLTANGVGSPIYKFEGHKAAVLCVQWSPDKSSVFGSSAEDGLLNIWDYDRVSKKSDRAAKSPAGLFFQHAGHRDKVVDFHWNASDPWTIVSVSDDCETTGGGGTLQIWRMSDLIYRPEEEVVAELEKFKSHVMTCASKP
Kind of experiment: co-IP; total proteins of leaves of transgenic Arabidopsis co-expressing AtIPK2β-MYC and FVE-GFP; anti-GFP antibody overnight at 4 °C, Protein A magnetic beads; blot with anti-MYC.

The target in experiment [3] is T3, AtIPK2β in pGBKT7 (yeast two-hybrid bait) (Arabidopsis thaliana) (UniProt Q9FLT2).
T3 sequence: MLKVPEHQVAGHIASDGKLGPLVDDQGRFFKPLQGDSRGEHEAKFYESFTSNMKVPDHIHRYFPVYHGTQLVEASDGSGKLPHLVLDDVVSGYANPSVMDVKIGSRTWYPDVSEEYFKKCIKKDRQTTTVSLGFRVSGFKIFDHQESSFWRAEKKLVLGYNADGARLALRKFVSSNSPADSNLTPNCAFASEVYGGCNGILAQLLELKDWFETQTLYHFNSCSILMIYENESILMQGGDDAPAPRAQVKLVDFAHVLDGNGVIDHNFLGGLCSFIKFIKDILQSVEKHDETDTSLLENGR
Put plainly: two-hybrid; BD Matchmaker system (Clontech), pGBKT7 and pGADT7, yeast strain AH109; growth on QDO (SD/-Leu/-Trp/-His/-Ade), 30 °C, 3-5 days; filter β-galactosidase assay.

B1: YN-AtIPK2β (protein, UniProt Q9FLT2 1-300)
chain: MLKVPEHQVAGHIASDGKLGPLVDDQGRFFKPLQGDSRGEHEAKFYESFTSNMKVPDHIHRYFPVYHGTQLVEASDGSGKLPHLVLDDVVSGYANPSVMDVKIGSRTWYPDVSEEYFKKCIKKDRQTTTVSLGFRVSGFKIFDHQESSFWRAEKKLVLGYNADGARLALRKFVSSNSPADSNLTPNCAFASEVYGGCNGILAQLLELKDWFETQTLYHFNSCSILMIYENESILMQGGDDAPAPRAQVKLVDFAHVLDGNGVIDHNFLGGLCSFIKFIKDILQSVEKHDETDTSLLENGR
On to B1, for which the binding entry in experiment [1] was “binds”.

B2: AtIPK2β-MYC (protein, UniProt Q9FLT2 1-300)
chain: MLKVPEHQVAGHIASDGKLGPLVDDQGRFFKPLQGDSRGEHEAKFYESFTSNMKVPDHIHRYFPVYHGTQLVEASDGSGKLPHLVLDDVVSGYANPSVMDVKIGSRTWYPDVSEEYFKKCIKKDRQTTTVSLGFRVSGFKIFDHQESSFWRAEKKLVLGYNADGARLALRKFVSSNSPADSNLTPNCAFASEVYGGCNGILAQLLELKDWFETQTLYHFNSCSILMIYENESILMQGGDDAPAPRAQVKLVDFAHVLDGNGVIDHNFLGGLCSFIKFIKDILQSVEKHDETDTSLLENGR
As to B2, in experiment [2], the binding entry is “binds”.

B3: FVE full-length in pGADT7 (yeast two-hybrid prey) (protein, UniProt O22607 1-507)
chain: MESDEAAAVSPQATTPSGGTGASGPKKRGRKPKTKEDSQTPSSQQQSDVKMKESGKKTQQSPSVDEKYSQWKGLVPILYDWLANHNLVWPSLSCRWGPQLEQATYKNRQRLYLSEQTDGSVPNTLVIANCEVVKPRVAAAEHISQFNEEARSPFVKKYKTIIHPGEVNRIRELPQNSKIVATHTDSPDVLIWDVETQPNRHAVLGAANSRPDLILTGHQDNAEFALAMCPTEPFVLSGGKDKSVVLWSIQDHITTIGTDSKSSGSIIKQTGEGTDKNESPTVGPRGVYHGHEDTVEDVAFSPTSAQEFCSVGDDSCLILWDARTGTNPVTKVEKAHDADLHCVDWNPHDDNLILTGSADNTVRLFDRRKLTANGVGSPIYKFEGHKAAVLCVQWSPDKSSVFGSSAEDGLLNIWDYDRVSKKSDRAAKSPAGLFFQHAGHRDKVVDFHWNASDPWTIVSVSDDCETTGGGGTLQIWRMSDLIYRPEEEVVAELEKFKSHVMTCASKP
In the case of B3, the binding result in experiment [3] is “binds”.
